## Percent effect of library compounds

Sequences of proteins named here, by UniProt entry; tags and fusion partners are left off. Residues count along the entry.
UniProt P9WFT3, whole entry: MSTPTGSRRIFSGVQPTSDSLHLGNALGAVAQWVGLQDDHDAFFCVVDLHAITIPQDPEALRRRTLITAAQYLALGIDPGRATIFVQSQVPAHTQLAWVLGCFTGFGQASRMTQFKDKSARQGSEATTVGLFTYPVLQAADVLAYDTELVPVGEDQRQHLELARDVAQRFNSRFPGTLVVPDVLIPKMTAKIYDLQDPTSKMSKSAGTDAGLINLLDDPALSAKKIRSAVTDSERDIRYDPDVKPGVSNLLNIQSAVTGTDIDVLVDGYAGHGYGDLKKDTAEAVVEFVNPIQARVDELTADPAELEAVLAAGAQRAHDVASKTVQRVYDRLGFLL
UniProt I6X8D2, whole entry: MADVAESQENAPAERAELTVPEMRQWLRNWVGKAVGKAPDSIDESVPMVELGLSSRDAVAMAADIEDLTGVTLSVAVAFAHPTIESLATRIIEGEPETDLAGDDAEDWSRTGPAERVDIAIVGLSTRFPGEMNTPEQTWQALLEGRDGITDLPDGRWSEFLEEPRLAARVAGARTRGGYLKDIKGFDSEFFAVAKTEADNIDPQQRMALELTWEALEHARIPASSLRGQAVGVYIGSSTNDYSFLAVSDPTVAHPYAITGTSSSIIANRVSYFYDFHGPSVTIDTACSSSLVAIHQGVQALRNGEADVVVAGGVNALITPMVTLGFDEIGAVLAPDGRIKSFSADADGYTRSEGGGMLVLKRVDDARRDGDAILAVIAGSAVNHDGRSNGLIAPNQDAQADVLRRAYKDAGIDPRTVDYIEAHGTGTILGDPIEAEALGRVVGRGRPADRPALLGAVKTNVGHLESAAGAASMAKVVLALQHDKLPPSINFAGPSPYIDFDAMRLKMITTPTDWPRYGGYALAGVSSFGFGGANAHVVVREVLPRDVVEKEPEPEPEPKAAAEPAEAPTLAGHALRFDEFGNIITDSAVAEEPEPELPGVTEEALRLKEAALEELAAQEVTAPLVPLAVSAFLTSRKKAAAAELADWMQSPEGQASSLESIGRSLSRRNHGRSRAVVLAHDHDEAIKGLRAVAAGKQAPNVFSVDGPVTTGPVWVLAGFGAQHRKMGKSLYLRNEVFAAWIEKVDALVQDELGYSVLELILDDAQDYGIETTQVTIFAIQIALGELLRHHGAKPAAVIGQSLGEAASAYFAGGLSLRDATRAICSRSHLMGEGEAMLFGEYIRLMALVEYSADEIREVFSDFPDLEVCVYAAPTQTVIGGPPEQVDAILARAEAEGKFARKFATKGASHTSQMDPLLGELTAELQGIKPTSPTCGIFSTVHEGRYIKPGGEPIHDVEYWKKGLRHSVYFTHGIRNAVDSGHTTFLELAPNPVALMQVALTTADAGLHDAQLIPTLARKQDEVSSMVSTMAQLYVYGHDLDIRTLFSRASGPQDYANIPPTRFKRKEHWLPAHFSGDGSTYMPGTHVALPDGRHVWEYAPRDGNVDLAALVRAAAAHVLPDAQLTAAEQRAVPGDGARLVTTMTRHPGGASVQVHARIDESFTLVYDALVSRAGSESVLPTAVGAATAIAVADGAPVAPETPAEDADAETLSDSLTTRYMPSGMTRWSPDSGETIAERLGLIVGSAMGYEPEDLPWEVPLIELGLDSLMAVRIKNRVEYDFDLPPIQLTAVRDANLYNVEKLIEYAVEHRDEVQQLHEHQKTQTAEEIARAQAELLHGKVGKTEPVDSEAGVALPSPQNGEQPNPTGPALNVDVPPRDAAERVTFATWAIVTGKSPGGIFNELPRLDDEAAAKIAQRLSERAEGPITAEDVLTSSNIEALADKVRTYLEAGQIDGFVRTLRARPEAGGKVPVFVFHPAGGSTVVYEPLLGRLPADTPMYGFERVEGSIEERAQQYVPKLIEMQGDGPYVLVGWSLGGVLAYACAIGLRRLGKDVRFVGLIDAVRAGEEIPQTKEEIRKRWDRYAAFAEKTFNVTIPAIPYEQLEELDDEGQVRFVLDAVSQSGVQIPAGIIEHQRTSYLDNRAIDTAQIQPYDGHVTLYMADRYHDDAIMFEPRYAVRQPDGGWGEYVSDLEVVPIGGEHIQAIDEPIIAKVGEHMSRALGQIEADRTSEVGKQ
UniProt A4I591, 1-473: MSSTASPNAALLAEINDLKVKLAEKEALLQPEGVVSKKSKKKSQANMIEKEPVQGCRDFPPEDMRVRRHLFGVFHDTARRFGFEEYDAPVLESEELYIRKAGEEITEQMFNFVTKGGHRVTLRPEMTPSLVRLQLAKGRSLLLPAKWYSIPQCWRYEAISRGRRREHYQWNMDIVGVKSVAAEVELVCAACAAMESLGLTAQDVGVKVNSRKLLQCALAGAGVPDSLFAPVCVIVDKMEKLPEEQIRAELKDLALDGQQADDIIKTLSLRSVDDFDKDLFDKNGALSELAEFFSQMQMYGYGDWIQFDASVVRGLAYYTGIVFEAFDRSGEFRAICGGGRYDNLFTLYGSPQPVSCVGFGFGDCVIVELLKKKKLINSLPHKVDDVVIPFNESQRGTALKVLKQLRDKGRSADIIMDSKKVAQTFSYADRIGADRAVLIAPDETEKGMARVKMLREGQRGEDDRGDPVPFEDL
UniProt Q4DA54, 1-478: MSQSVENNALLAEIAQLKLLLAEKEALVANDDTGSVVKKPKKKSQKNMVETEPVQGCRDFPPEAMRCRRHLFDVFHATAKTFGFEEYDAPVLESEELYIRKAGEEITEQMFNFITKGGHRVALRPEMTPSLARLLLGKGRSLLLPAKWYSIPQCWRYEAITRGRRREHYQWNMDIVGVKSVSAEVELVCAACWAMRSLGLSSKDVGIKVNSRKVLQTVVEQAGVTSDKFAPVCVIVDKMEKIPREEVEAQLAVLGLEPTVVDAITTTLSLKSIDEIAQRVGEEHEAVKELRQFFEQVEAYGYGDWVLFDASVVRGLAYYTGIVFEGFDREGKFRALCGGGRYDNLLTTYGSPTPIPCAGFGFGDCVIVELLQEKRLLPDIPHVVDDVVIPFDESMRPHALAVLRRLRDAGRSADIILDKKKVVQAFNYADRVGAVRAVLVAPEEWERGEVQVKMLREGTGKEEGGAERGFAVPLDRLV

MtTrpRS: 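Enzyme assay of tryptophanyl-tRNA synthetase; the read-out is not stated. Target: Tryptophan-tRNA ligase, Mycobacterium tuberculosis (UniProt P9WFT3). Concentration: 10 µM. Direction is not recorded; retested compounds ran higher, which suggests that high means inhibition. About 65,000 compounds were tested under these conditions; 0.098% (about 64) showed 50% or more at least once.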
Pks13 thioesterase: 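Enzyme assay of the thioesterase domain of polyketide synthase 13; the read-out is not stated. Target: Polyketide synthase Pks13, Mycobacterium tuberculosis (UniProt I6X8D2). Tested at 30 µM. The record gives no direction; the compounds picked for IC50 retests had high values, so higher reads as stronger inhibition. Size under these conditions: about 67,000 compounds, about 300 of them at 50% or above in at least one test.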
LiHisRS: 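Enzyme assay of histidyl-tRNA synthetase; the read-out is not stated. Target: Histidine-tRNA ligase, Leishmania infantum (UniProt A4I591). Concentration: 30 µM. Higher reads as stronger inhibition (inferred: compounds with an IC50 in retests scored well above the rest). The assay is labelled LdHisRS but filed under L. infantum. Size under these conditions: about 69,000 compounds, about 410 of them at 50% or above in at least one test.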
TcHisRS: 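Enzyme assay of histidyl-tRNA synthetase; the read-out is not stated. Target: Histidine-tRNA ligase, Trypanosoma cruzi CL Brener (UniProt Q4DA54). Tested at 30 µM. Direction is inferred from retests: higher values go with stronger inhibition. Size under these conditions: about 69,000 compounds, about 31 of them at 50% or above in at least one test.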

Values are the deposited “Percent Effect”, in %. The record does not define 0% and 100%; most values in the screen are far below 50% and negative numbers occur (in some assays of this library far below -100). The compounds are a random part of those screened.

For COC[C@]1(O)CCN(C2CCN(c3ccc(Cl)cc3)CC2)CC1(C)C the result was MtTrpRS: -1.652%; Pks13 thioesterase: -12.44%; LiHisRS: 20.97%; TcHisRS: 1.754%. With Cc1nn(CCC#N)c(C)c1CCC(=O)N(C)Cc1ccsc1 the screen gave MtTrpRS: 1.32%; Pks13 thioesterase: -31.98%; LiHisRS: 20%; TcHisRS: 4.124%. O=C(NCc1nncn1C1CC1)C1(c2ccc(F)cc2)CCOCC1 gave MtTrpRS: 1.027%; Pks13 thioesterase: -8.245%; LiHisRS: 8.333%; TcHisRS: 2.532%. Result for OC[C@H]1CCN(Cc2ccc3ccccc3n2)C[C@@H]1O was MtTrpRS: -4.839%; Pks13 thioesterase: -29.76%; LiHisRS: 13.33%; TcHisRS: 4.545%. COc1cc(NC(=O)NCC2CCCO2)cc(OC)c1OC (configuration not stated) gave MtTrpRS: 4.875%; Pks13 thioesterase: -19.86%; LiHisRS: 15.93%; TcHisRS: -7.895%. Cc1occc1C(=O)N1CCCC(c2nncn2C)C1 (configuration not stated) gave MtTrpRS: -3.135%; Pks13 thioesterase: -10.97%; LiHisRS: -0.885%; TcHisRS: -2.041%. Result for COCC(=O)NC[C@]1(O)CN(Cc2ccc3c(c2)OCCO3)C[C@H]1O was MtTrpRS: -5.028%; Pks13 thioesterase: 5.368%; LiHisRS: 6.711%; TcHisRS: 0.2857%.

For Cc1cccc2c1cnn2CCC(=O)NCc1csc(C2CC2)n1 the result was MtTrpRS: 1.223%; Pks13 thioesterase: -2.414%; LiHisRS: 14.94%; TcHisRS: 9.278%. Cc1cccc(CN2CCc3ncnc(C4CC4)c3CC2)n1 gave MtTrpRS: 3.239%; Pks13 thioesterase: -5.727%; LiHisRS: 24.47%; TcHisRS: 9.045%. CN(CCC(O)c1ccccc1)c1cc(N2CCOCC2)ncn1 (configuration not stated) read MtTrpRS: 1.106%; Pks13 thioesterase: -28.68%; LiHisRS: 1.754%; TcHisRS: 1.093%. For CN(Cc1nc(C(F)(F)F)cs1)C(=O)CCc1ccccn1 the result was MtTrpRS: -2.71%; Pks13 thioesterase: -1.193%; LiHisRS: 5.319%; TcHisRS: 3.03%. With Cc1cc2ccccc2n1CC(=O)Nc1ccnn1CC1CCOC1 (configuration not stated) the screen gave MtTrpRS: -2.376%; Pks13 thioesterase: 12.85%; LiHisRS: 12.2%; TcHisRS: 8.173%. Cn1ccnc1C1(O)CCN(C(=O)Cc2ccccc2)CC1 read MtTrpRS: -2.023%; Pks13 thioesterase: -6.216%; LiHisRS: 2.797%; TcHisRS: 2.825%. With COc1cc2c(cc1CNC(=O)C(C)n1ccnc1C(C)C)CCC2 (configuration not stated) the screen gave MtTrpRS: -4.052%; Pks13 thioesterase: -9.397%; LiHisRS: 14.17%; TcHisRS: 0.9662%.

O=C1CC(C(=O)Nc2nnc(-c3ccccn3)[nH]2)c2ccccc2N1 (configuration not stated) read MtTrpRS: 0%; Pks13 thioesterase: -23.55%; LiHisRS: 17.14%; TcHisRS: 6.122%. O=C(c1ccc(-n2cccn2)nc1)N1CCCC(n2cccn2)C1 (configuration not stated) read MtTrpRS: -5.964%; Pks13 thioesterase: 0.5819%; LiHisRS: 16.07%; TcHisRS: 4.734%. For CC(C)CC(=O)NCc1cccc(OCCN(C)C2CCOCC2)c1 the result was MtTrpRS: 2.205%; Pks13 thioesterase: -40.31%; LiHisRS: 17.81%; TcHisRS: 4.926%. COCCCN1C(=O)CC[C@H]2CN(Cc3ccc4nonc4c3)CC[C@H]21 read MtTrpRS: 0.9183%; Pks13 thioesterase: -8.703%; LiHisRS: 6.452%; TcHisRS: 3.247%. O=C(COc1ccc2c(c1)OCO2)NCc1ccco1 gave MtTrpRS: -3.756%; Pks13 thioesterase: 6%; LiHisRS: -1.724%; TcHisRS: 0%. O=C(NCCC1=CCCCC1)C1CCCN(c2ccc3nncn3n2)C1 (configuration not stated) read MtTrpRS: 0.4177%; Pks13 thioesterase: 3.363%; LiHisRS: 13.33%; TcHisRS: 2.479%.

Source: ChEMBL document CHEMBL3988442, “University of Dundee, Small-Polar-MMV Screening Library” (2021).